Literature values as cited in patent US5004758A, “Water soluble camptothecin analogs useful for inhibiting the growth of animal tumor cells” (priority 1988, dated 1991).

Settings: background statement; cited from earlier work

In the case of `CC[C@@]1(O)C(=O)OCc2c1cc1n(c2=O)Cc2cc3ccccc3nc2-1` [Camptothecin], the “solubility in water” value is listed as “water-insoluble”.
